According to patent US10520509B2 (Washington State University, priority 2016, dated 2019):

Test: Fluorescence sensitivity of DDP probe to H2S (Na2S)
Details: λex=360 nm

SMILES: [N-]=[N+]=Nc1ccc2c(CC(=O)N3CCN(c4ccc5c(c4)Oc4cc(OC(=O)c6ccccc6SC(=O)c6ccccc6)ccc4C54OC(=O)c5ccccc54)CC3)cc(=O)oc2c1 (centres unmarked) [DDP-1]
- detection limit (S/N=3) for H2S, emission at 452 nm: 100 nm
- detection limit (S/N=3) for H2S, emission at 542 nm: 150 nm
